Columns and labels:
[1] = tested on: LPS micelles; test: Tryptophan fluorescence blue shift in LPS micelles; parameters: species or system Pseudomonas aeruginosa; conditions: 10 μM peptide, 0.8 mg/mL LPS, overnight, 10 mM Tris 10 mM NaCl pH 7.4; ex 280 nm, em 300-400 nm; baseline in aqueous solution 350 nm
[2] = tested on: LPS micelles; test: Acrylamide quenching of Trp fluorescence in LPS micelles (Stern-Volmer); parameters: species or system Pseudomonas aeruginosa; conditions: 10 μM peptide, 0.8 mg/mL LPS, acrylamide in 0.1 M increments; ex 295 nm, em 310-400 nm (AUC); values closer to 1.0 = greater insertion; average of n = 3

Substance | λMF, wavelength of peak Trp fluorescence in the presence of LPS micelles [1] [nm] | m (F0/F), Stern-Volmer slope for acrylamide quenching in the presence of LPS micelles [2]
H-WAGSAAIGALLPSVVGLFQKKKKKK-NH2 [PonC 2A] | 346 | 5.8
H-WLKKALKIGAKLLPSVVKLFKGSGQ-NH2 [PonAmp] | 334 | 4.7
H-WAGSAAIGAALPSVVGLFQKKKKKK-NH2 [PonC 3A] | 346 | 5.6
H-WAGSAAIGAALPSVVGAFQKKKKKK-NH2 [PonC 4A] | 346 | 5.8
H-KKKKKKWAGSAAIGALLPSVVGLFQ-NH2 [PonN 2A] | 330 | 3.2
H-WAKKAAKIGAKALPSVVKLFKGSGQ-NH2 [PonAmp 3A] | 336 | 4.5
H-KKKKKKWLGSALIGALLPSVVGLFQ-NH2 [PonN] | 326 | 3.4
H-WAKKAAKIGAKLLPSVVKLFKGSGQ-NH2 [PonAmp 2A] | 336 | 3.8
H-WAKKAAKIGAKALPSVVKAFKGSGQ-NH2 [PonAmp 4A] | 336 | 3.9
H-WLGSALKIGAKLLPSVVGLFKKKKQ-NH2 [Ponericin W1, reference compound] | 338 | 5.9
H-WLGSALIGALLPSVVGLFQKKKKKK-NH2 [PonC] | 335 | 3.8
H-KKKKKKWAGSAAIGAALPSVVGAFQ-NH2 [PonN 4A] | 336 | 3.7
